Assay results taken from PubChem BioAssay AID493014 (National Center for Advancing Translational Sciences (NCATS), 2011).
The other results are listed elsewhere or left out. The main result of the screen is listed elsewhere. These columns were measured beside it and carry no call. The list favours compounds with an active or inconclusive main result. The note in brackets gives the kind of curve behind each potency; many fits are weak. Peptide text beside a SMILES is read from it. * marks the point of attachment. Boc = CC(C)(C)OC(=O)*

Test: qHTS Assay to Find Inhibitors of Chronic Active B-Cell Receptor Signaling
Conditions: ABC-DLBCL IkBa-CBG/CBR reporter, luminescence ratio (green luciferase fused to IkBa over red control in TMD8 lymphoma cells), 4 h
Procedure, shortened: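 Compounds up to 46 uM were incubated four hours with TMD8 cells whose green CBG68 luciferase is fused to IkappaBalpha; red CBR luminescence normalised the signal, and concentration-effect curves were fitted to fusion, red and ratio data.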

[1] = measured here: CBR red luminescence, cell number

**Q.** Which AC50 [1] does the source give for `Cc1cc(C(=O)N/N=C/C=C/c2ccccc2[N+](=O)[O-])c(C)o1` here?
**A.** 14.1 µM [falling, single point]

**Q.** For `Cc1ccc(SCc2nc(-c3ccccn3)no2)cc1`, which AC50 [1] is on record?
**A.** 32.6 µM [falling, single point]

**Q.** For `CCCNC(=O)c1ccc(S(=O)(=O)c2ccc(OC)cc2)c([N+](=O)[O-])c1`, which AC50 [1] is on record?
**A.** 0.562 µM [falling, full curve, poor fit]

**Q.** Which AC50 [1] does the source give for `Cc1cccn2c(=O)nc(SCC(=O)N3CCCCC3)nc12` here?
**A.** 3.26 µM [rising, partial curve, poor fit]

**Q.** For `CCCc1c(C(=O)Nc2ccc(C(F)(F)F)cc2)cnn1-c1ccccc1`, which AC50 [1] is on record?
**A.** 7.94 µM [rising, partial curve]

**Q.** Which AC50 [1] does the source give for `O=C1CSCC(=O)N1Cc1ccc(Cl)c(Cl)c1` here?
**A.** 20 µM [rising, single point]

**Q.** For `COCCn1c(SCC(=O)Nc2ccc3[nH]c(=O)[nH]c3c2)nc2ccccc2c1=O`, which AC50 [1] is on record?
**A.** 22.4 µM [falling, single point]

**Q.** For `CC(=O)N/C(=C\c1cccc([N+](=O)[O-])c1)C(=O)NC1CCCCC1`, which AC50 [1] is on record?
**A.** 11.6 µM [rising, partial curve, poor fit]

**Q.** With `O=C(Nc1ccc(F)cc1F)c1ccc2c(c1)OCCO2` as the compound, how does the AC50 [1] read?
**A.** 8.91 µM [falling, partial curve]

**Q.** With `CCc1ccc(OCC(=O)Nc2ccc(S(=O)(=O)N3CCCC3)cc2)c(Br)c1` as the compound, how does the AC50 [1] read?
**A.** 0.082 µM [rising, full curve, poor fit]

**Q.** With `O=C1/C(=C/c2cccs2)N=C(c2cccs2)N1Nc1ccccc1` as the compound, how does the AC50 [1] read?
**A.** 13 µM [rising, partial curve, poor fit]

**Q.** With `O=C(Nc1ccc2nc(-c3ccco3)c(-c3ccco3)nc2c1)N1CCN(c2ccccn2)CC1` as the compound, how does the AC50 [1] read?
**A.** 14.6 µM [falling, partial curve, poor fit]

**Q.** With `O=S(=O)(NC1CCCC1)c1ccc(S(=O)(=O)N2CCc3ccccc32)cc1` as the compound, how does the AC50 [1] read?
**A.** 0.731 µM [falling, partial curve, poor fit]

**Q.** For `O=C(NC(NC1CCS(=O)(=O)C1)C(=O)c1cccs1)c1ccccc1` (centres undefined), which AC50 [1] is on record?
**A.** 6.51 µM [falling, single point]

**Q.** With `COc1cccc(N(CC(=O)NC(C)c2ccccc2)S(C)(=O)=O)c1` (centres undefined) as the compound, how does the AC50 [1] read?
**A.** 0.794 µM [rising, full curve, poor fit]

**Q.** Which AC50 [1] does the source give for `O=C(O)CCCC(=O)Nc1nc(-c2ccc(F)cc2)cs1` here?
**A.** 0.206 µM [falling, full curve]

**Q.** With `COCc1nnc(NC(=O)CCC2CCCCC2)s1` as the compound, how does the AC50 [1] read?
**A.** 16.4 µM [rising, partial curve, poor fit]

**Q.** With `Cc1ccc(CNC(=O)c2cc(=O)c3ccccc3o2)cc1` as the compound, how does the AC50 [1] read?
**A.** 0.316 µM [rising, full curve, poor fit]

**Q.** With `Cc1ccc(NC(=O)CSc2nc3[nH]ncc3c(=O)[nH]2)cc1` as the compound, how does the AC50 [1] read?
**A.** 7.08 µM [falling, partial curve, poor fit]

**Q.** With `CN1C(=O)NC(c2ccccc2)C2=C1CN(c1cccc(C(F)(F)F)c1)C2=O` (centres undefined) as the compound, how does the AC50 [1] read?
**A.** 35.5 µM [falling, single point]

**Q.** For `O=C(NNS(=O)(=O)c1ccc([N+](=O)[O-])cc1)C(=O)Nc1cccc(C(=O)O)c1`, which AC50 [1] is on record?
**A.** 12.6 µM [falling, partial curve, poor fit]

**Q.** With `C=CCOc1nc2c(c(=O)n(C)c(=O)n2C)n1C` as the compound, how does the AC50 [1] read?
**A.** 6.51 µM [falling, single point]

**Q.** Which AC50 [1] does the source give for `Cc1ccc(-n2c(O)c(/C=N/Nc3ccc(S(=O)(=O)N4CCOCC4)cc3[N+](=O)[O-])c3ccccc3c2=O)c(C)c1` here?
**A.** 29.1 µM [falling, single point]

**Q.** Which AC50 [1] does the source give for `Cn1c(N)c(C(=O)COC(=O)COc2ccc(C#N)cc2)c(=O)n(C)c1=O` here?
**A.** 0.794 µM [falling, partial curve]

**Q.** With `CCOC(=O)N/C(N)=N/c1nc2ccccc2s1` as the compound, how does the AC50 [1] read?
**A.** 13 µM [falling, partial curve]

**Q.** Which AC50 [1] does the source give for `Oc1oc(-c2ccccc2)nc1/C=N/c1nccs1` here?
**A.** 16.4 µM [falling, partial curve]

**Q.** Which AC50 [1] does the source give for `O=C(c1ccco1)N1CCN(C(=O)N2c3ccccc3Sc3ccccc32)CC1` here?
**A.** 6.51 µM [rising, partial curve]

**Q.** And the AC50 (measured here: IkBa-CBG green luminescence)?
**A.** 5.17 µM [falling, partial curve]

**Q.** With `COc1ccc(NC(=O)c2cccc(S(=O)(=O)N(C)c3ccccc3)c2)cn1` as the compound, how does the AC50 [1] read?
**A.** 32.6 µM [falling, partial curve, poor fit]

**Q.** Which AC50 [1] does the source give for `COc1ccc(OC)c(NC(=O)COC(=O)c2c3c(nc4ccccc24)CCCC3)c1` here?
**A.** 23.1 µM [falling, partial curve, poor fit]

**Q.** With `COc1ccc(CCCC(=O)Nc2ccc(F)cc2)cc1` as the compound, how does the AC50 [1] read?
**A.** 29.1 µM [falling, partial curve, poor fit]

**Q.** Which AC50 [1] does the source give for `N#Cc1cc(-c2ccccc2)nn1-c1ccccc1` here?
**A.** 11.6 µM [rising, partial curve]

**Q.** For `COc1ccccc1-n1cnnc1SCC(=O)Nc1cc(C)on1`, which AC50 [1] is on record?
**A.** 1 µM [falling, partial curve, poor fit]

**Q.** For `COc1ccc(-c2nc(CN3CCC(C(=O)N4CCc5ccccc54)CC3)c(C)o2)cc1OC`, which AC50 [1] is on record?
**A.** 29.1 µM [falling, single point]

**Q.** Which AC50 [1] does the source give for `O=C(CSc1nnc(NC(=O)C2CCC2)s1)Nc1ccccc1Br` here?
**A.** 1.12 µM [rising, full curve, poor fit]

**Q.** Which AC50 [1] does the source give for `Cc1ccc(NC(=S)NCc2ccccc2Cl)c(C)c1` here?
**A.** 9.2 µM [rising, partial curve]

**Q.** With `CCNc1nc(C23CC4CC(CC(C4)C2)C3)cs1` as the compound, how does the AC50 [1] read?
**A.** 14.1 µM [rising, single point]

**Q.** Which AC50 [1] does the source give for `CCOC(=O)[C@H]1[C@H]2COc3ccc(Cl)cc3[C@@H]2N2C(=O)c3cc(Br)ccc3NC(=O)[C@@]12C` here?
**A.** 29.1 µM [falling, single point]

**Q.** For `COc1ccc(-c2csc(N(CCCN(C)C)C(=O)c3ccccc3F)n2)cc1`, which AC50 [1] is on record?
**A.** 15.8 µM [falling, single point]

**Q.** For `COC(=O)CNS(=O)(=O)c1ccc(Cc2ccc(S(=O)(=O)NCC(=O)OC)cc2)cc1`, which AC50 [1] is on record?
**A.** 0.316 µM [falling, partial curve, poor fit]

**Q.** Which AC50 [1] does the source give for `COc1ccc(Cn2c(O)c(C=Nc3ccc(O)cc3)c3ccccc3c2=O)cc1` here?
**A.** 25.9 µM [falling, partial curve, poor fit]

**Q.** For `CC(C)C(=O)Nc1cccc(NC(=S)NC(=O)c2ccccc2Cl)c1`, which AC50 [1] is on record?
**A.** 0.282 µM [falling, full curve, poor fit]

**Q.** With `CCCN(CCC)c1nc(N)nc(-c2cc(Cl)ccc2OC)n1` as the compound, how does the AC50 [1] read?
**A.** 3.98 µM [rising, single point]

**Q.** For `OCC1(Cc2ccccc2C(F)(F)F)CCN(Cc2ccccc2)CC1`, which AC50 [1] is on record?
**A.** 11.2 µM [falling, partial curve, poor fit]

**Q.** Which AC50 [1] does the source give for `Cc1ccc(NC(=O)CSc2nc3c(c(=O)[nH]2)CCC3)cc1C` here?
**A.** 10 µM [falling, partial curve, poor fit]

**Q.** Which AC50 [1] does the source give for `O=C(CSc1nnc(C2CCCCC2)o1)Nc1ccccc1Cl` here?
**A.** 22.4 µM [falling, single point]

**Q.** For `CCOc1ccc(OCc2cccc(C(=O)O)c2)cc1`, which AC50 [1] is on record?
**A.** 0.631 µM [falling, full curve, poor fit]

**Q.** Which AC50 [1] does the source give for `CCCN1CCN(c2ncnc3scc(C4COc5ccccc5O4)c23)CC1` (centres undefined) here?
**A.** 11.2 µM [falling, partial curve, poor fit]

**Q.** Which AC50 [1] does the source give for `COc1ccc(CC(=O)Nc2c(C(N)=O)oc3ccccc23)cc1` here?
**A.** 1.26 µM [falling, partial curve, poor fit]

**Q.** With `Cc1ccc2nc(C)c(Cl)c(=O)n2c1` as the compound, how does the AC50 [1] read?
**A.** 1.64 µM [falling, partial curve, poor fit]

**Q.** For `O=C(c1cccs1)n1nc(-c2ccccc2)nc1NCc1ccc(F)cc1`, which AC50 [1] is on record?
**A.** 10.3 µM [rising, partial curve, poor fit]

**Q.** With `Cc1cc(=O)[nH]c(SCC(=O)Nc2ccc(C(=O)O)cc2)n1` as the compound, how does the AC50 [1] read?
**A.** 18.4 µM [falling, single point]

**Q.** For `Cc1cccc(N/C=C/C(=O)c2cccs2)c1C`, which AC50 [1] is on record?
**A.** 29.1 µM [falling, single point]

**Q.** With `Cc1cc2c(N=NC(=O)CCc3ccccc3)c(O)[nH]c2cc1Br` as the compound, how does the AC50 [1] read?
**A.** 6.51 µM [rising, partial curve, poor fit]

**Q.** With `CC(C)CC(NC(=O)C1CCCN1C(=O)OC(C)(C)C)C(=O)NCC(N)=O` (stereo not drawn) (Boc-Pro-Leu-Gly-NH2; configuration not given here) as the compound, how does the AC50 [1] read?
**A.** 29.1 µM [rising, single point]

**Q.** With `Cc1ccccc1C(=O)NC(=S)NCCc1ccccc1` as the compound, how does the AC50 [1] read?
**A.** 7.31 µM [falling, partial curve, poor fit]

**Q.** For `CCCn1c(C)cc(-c2csc(NC(=O)CCc3nc4ccccc4c(=O)[nH]3)n2)c1C`, which AC50 [1] is on record?
**A.** 1.46 µM [rising, full curve]

**Q.** Which AC50 [1] does the source give for `COc1ccccc1/C=C1/C(=O)N(c2ccccc2)N=C1C` here?
**A.** 20 µM [rising, single point]

**Q.** Which AC50 [1] does the source give for `COc1cccc(C(=O)NNC(=O)Cc2ccc([N+](=O)[O-])cc2)c1` here?
**A.** 8.2 µM [falling, partial curve]

**Q.** Which AC50 [1] does the source give for `CC(C)c1ccc(/C=N\NC(=O)c2ccc(Cn3cccn3)o2)cc1` here?
**A.** 11.6 µM [falling, partial curve]

**Q.** Which AC50 [1] does the source give for `Oc1ccccc1/C=C/c1noc(-c2ccccc2O)n1` here?
**A.** 5.01 µM [falling, partial curve]

**Q.** Which AC50 [1] does the source give for `CCOC(=O)c1ccc(NC(=O)Oc2cc(C)c(Cl)cc2C(C)C)cc1` here?
**A.** 31.6 µM [rising, single point]

**Q.** With `O=C(Cn1cnc([N+](=O)[O-])n1)N/N=C/c1ccc(O)cc1O` as the compound, how does the AC50 [1] read?
**A.** 10 µM [falling, partial curve]

**Q.** For `O=C(COc1ccc([N+](=O)[O-])cc1Cl)N1CCc2ccccc21`, which AC50 [1] is on record?
**A.** 5.8 µM [rising, single point]
